Data published in PubChem BioAssay AID2685 (National Center for Advancing Translational Sciences (NCATS), 2010).
Hit rate of the full screen: of about 320,000 compounds, about 2,100 (0.66%) were called active. This list was built around the results that the source calls inconclusive (neither active nor inactive); the mix of calls is not that of the screen. Calls follow the shape of the dose curve; as a rule, active = well fitted inhibition curve with a large enough effect in the signal ratio, with a control signal flat (not every such curve was filed as active); inconclusive = small, poorly fitted or top-dose-only effect, or effect the other way, or a change in a side signal; inactive = flat fitted curve, though single readings scatter; the % refers to the signal ratio. Where the call is inconclusive, the potency comes from a doubtful curve fit.

Test: qHTS Assay for Lipid Storage Modulators in Drosophila S3 Cells
Conditions: BODIPY lipid droplet fluorescence, 18-24 h, cells fed with added oleic acid; lipid storage change, negative = inhibition: at 46.1 µM (top of the series) unless noted
Outline: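 Laser-scanning cytometry quantifies lipid droplet accumulation (500–530 nm total intensity; droplet/cell object ratio) in oleic acid-fed (400 uM added) Drosophila S3 cells treated with a concentration series. 20 uM Triacsin C defined 100% inhibition.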
% is scaled to controls: 0 for no effect and ±100 for the full control effect; potency is read from the fitted curve at half-maximal effect.

| SMILES | lipid storage change, negative = inhibition | Potency | outcome |
| --- | --- | --- | --- |
| COc1ccc(S(=O)(=O)N(CC(=O)NCc2ccncc2)Cc2ccccc2)cc1 | inconclusive: -35.9% | – | – |
| Cc1ccccc1-n1ncc(C(C)NS(=O)(=O)c2ccccc2Cl)c1C (stereo unspecified) | inconclusive: 1.15% | – | – |
| Cc1ccc(C(=O)OC(C(=O)O)C(OC(=O)c2ccc(C)cc2)C(=O)O)cc1 (stereo unspecified) | inconclusive: -7.96% | – | – |
| COc1ccc(/C=N/NC(=S)Nc2ccccc2)cc1COc1ccccc1F | inconclusive: -6.75% | – | – |
| CCOC(=O)c1c(CC(C)C)csc1NC(=O)CCl | inconclusive: 111% | – | – |
| c1ccc(-c2cn(CC3CCCCC3)nn2)cc1 | inconclusive: -39.9% | – | – |
| Cn1c(-c2cnn(-c3ccccc3)c2-n2cccc2)n[nH]c1=S | inconclusive: -37.7% | – | – |
| COc1cc2c(C#N)c(N3CCCC3)nc(N)c2c(N)n1 | – | inconclusive: 23.1 µM [falling, single point] | – |
| Cc1cccc(N2CCN(C(=O)c3ccccn3)CC2C)c1 (stereo unspecified) | inconclusive: 10.6% | – | – |
| COCCN(CC(=O)NCc1ccc(F)cc1)C(=O)CCC(=O)Nc1ccccn1 | inconclusive: -0.0069% | – | – |
| CC(=O)c1cccc(OCc2cc(C(=O)N3C[C@H]4CC[C@H]3C4)no2)c1 | inconclusive: -43.7% | – | – |
| O=C(NCc1ccc2c(c1)OCO2)c1cnc2n(c1=O)CCS2 | inconclusive: 10.7% | – | – |
| COCCNC(=S)N(CCc1c(C)[nH]c2ccc(Cl)cc12)Cc1cccnc1 | inconclusive: -0.0083% | – | – |
| COCCn1nnnc1SCC(=O)c1ccccc1 | – | active: 20.6 µM | – |
| Cc1ccccc1OCC(=O)OCC(=O)N1CCCc2ccccc21 | – | – | inactive [at 46.1 µM] |
| O=C(Nc1ccc2[nH]c3c(c2c1)CCCC3)c1ccco1 | – | inconclusive: 16.4 µM [rising, partial curve] | – |
| Cc1cc2n(n1)C(c1ccco1)Nc1ccccc1-2 (stereo unspecified) | inconclusive: -1.99% | – | – |
| COc1ccc(S(=O)(=O)N(CC(=O)N/N=C/c2cccs2)c2ccc(C)cc2)cc1OC | – | inconclusive: 13 µM [activator, partial curve] | – |
| Cc1ccc(-c2nnc(SCC(=O)NC3CCCc4ccccc43)n2N)cc1 (stereo unspecified) | – | inconclusive: 6.51 µM [falling, single point] | – |
| CN(C(=O)COC(=O)c1cccc(S(=O)(=O)N2CCOCC2)c1)C1CCS(=O)(=O)C1 (stereo unspecified) | inconclusive: 47.6% | – | – |
| Cc1cc(C)c(S(=O)(=O)NC(CC(=O)O)c2cccc([N+](=O)[O-])c2)c(C)c1 (stereo unspecified) | inconclusive: 0.216% | – | – |
| [O-]/C(=C(\C(=S)Nc1ccc(Cl)cc1)[n+]1ccccc1)c1ccc(OC(F)F)cc1 | – | inconclusive: 23.1 µM [falling, partial curve, poor fit] | – |
| Cc1csc(NC(=O)CSc2nccn2Cc2ccco2)n1 | inconclusive: 5.38% [cytotoxic] | – | – |
| Cc1cc2sc(NC(=O)c3ccco3)nc2cc1Cl | – | inconclusive: 29.1 µM [activator, single point] | – |
| CN1CCN(C(=O)c2ccc(-n3cccc3)cc2)CC1 | – | inconclusive: 0.651 µM [activator, full curve, poor fit] | – |
| COC(=O)c1sccc1NC(=O)Cn1nnc(-c2ccccc2C)n1 | – | inconclusive: 6.51 µM [rising, single point] | – |

| SMILES | lipid storage change, negative = inhibition | Potency | outcome |
| --- | --- | --- | --- |
| COc1ccc(OC)c(/C=C/c2[nH]c(=O)[nH]c(=O)c2[N+](=O)[O-])c1 | – | inconclusive: 29.1 µM [falling, single point] | – |
| CCCCC[C@H](O)/C=C/[C@@H]1[C@@H](C/C=C\CCCC(=O)O)[C@@H](O)C[C@H]1O | inconclusive: -2.03% | – | – |
| CCn1nnnc1SCC(=O)N(C1CCCCC1)C1CCCCC1 | inconclusive: 24.9% | – | – |
| CC(C)OCCCNC(=O)c1cccc(NC(=O)c2ccccc2)c1 | inconclusive: 19.9% | – | – |
| COc1ccc(CCNC(=O)/C(C#N)=C/c2cccc(OCc3ccccc3)c2)cc1OC | inconclusive: -18.4% | – | – |
| CCCCn1c(SCC(=O)N2CCOCC2)nc2ccccc2c1=O | – | inconclusive: 0.651 µM [falling, partial curve, poor fit] | – |
| CN(C)C1=NC[C@H](Cc2ccccc2)N1CC1CCCC1 | inconclusive: 14.8% | – | – |
| NC(=O)C1CCN(C(=O)CC(c2ccccc2)c2ccccc2)CC1 | – | inconclusive: 6.51 µM [activator, single point] | – |
| CSc1ccc(CN2CCCCCC2)cc1 | inconclusive: 2.75% | – | – |
| CCOC(=O)c1[nH]c2ccccc2c1NC(C)=O | inconclusive: 0.159% | – | – |
| Cc1ccc(S(=O)(=O)n2nc(OC(=O)c3ccccc3F)cc2N)cc1 | inconclusive: 283% | – | – |
| O=C(c1ccccc1)N1CCN(C(=O)N2CCCCC2)CC1 | inconclusive: -31.3% | – | – |
| COc1cc(C(=O)NNC(=S)NC(=O)c2ccc(Cl)cc2)cc(OC)c1OC | inconclusive: 31.4% | – | – |
| COC(=O)C1=CO[C@@H](O)C2C(CO)=CCC12 (stereo partly specified) | – | inconclusive: 29.1 µM [activator, single point] | – |
| COc1ccc(-c2n[nH]c3c2CN(C(=O)c2ccc(OC)c(OC)c2)CC3)cc1 | – | inconclusive: 6.51 µM [activator, single point] | – |
| O=C(COc1ccc(Cl)cc1)N1CCN(C(=O)c2ccccc2F)CC1 | inconclusive: -35.5% | – | – |
| CC1CC(C)CN(C(=O)Cn2nnc(-c3ccccc3)n2)C1 (stereo unspecified) | inconclusive: 103% | – | – |
| O=C(COc1cccc(-n2cnnn2)c1)Nc1ccccc1 | inactive: -13.1% | – | – |
| O=C(CCC(=O)N(CC(=O)NC1CCCC1)Cc1ccccc1)Nc1nccs1 | – | active: 3.66 µM | – |
| CCOc1ccc(NS(=O)(=O)c2ccc(C(=O)N3CCCCC3)cc2)cc1 | inconclusive: -34.9% | – | – |
| O=[N+]([O-])c1cccc2nc(-c3ccccc3)c(-c3ccccc3)nc12 | inconclusive: -47.7% | – | – |
| CC12C=CC3(O1)C(C(=O)N(c1cccnc1)C3C(=O)NC1CCCCC1)C2C(=O)Nc1ccccc1 (stereo unspecified) | inconclusive: -11.5% | – | – |
| C=C(C)Cn1c(SCC(=O)N/N=C/c2ccccc2OCC(=O)O)nnc1-c1ccc(Br)cc1 | inconclusive: 51% | – | – |
| CCOc1cccc(OCCCCN2CCOCC2)c1 | inconclusive: 12.1% | – | – |
| Cc1nn(CC(=O)Nc2c(C)n(C)n(-c3ccccc3)c2=O)c(C)c1[N+](=O)[O-] | inconclusive: -12.4% | – | – |

Compounds above containing a thiophene ring, fused or not, in the order listed:

| SMILES | lipid storage change, negative = inhibition | Potency | outcome |
| --- | --- | --- | --- |
| CCOC(=O)c1c(CC(C)C)csc1NC(=O)CCl | inconclusive: 111% | – | – |
| COc1ccc(S(=O)(=O)N(CC(=O)N/N=C/c2cccs2)c2ccc(C)cc2)cc1OC | – | inconclusive: 13 µM [activator, partial curve] | – |
| COC(=O)c1sccc1NC(=O)Cn1nnc(-c2ccccc2C)n1 | – | inconclusive: 6.51 µM [rising, single point] | – |
